Common to all, as to experiment: two-hybrid; yeast AH109 with AD-ABR1 and BD-CIPK3.1, BD-CIPK3.2, BD-CIPK3.3, BD-CIPK3.4 or CIPK3K in pGBT9.BS; spot dilution on SD-HLW + 0.1 mM 3AT and SD-HLW + 0.25 mM 3AT; also ONPG-based beta-galactosidase assay
The target of experiment [1] is BD-CIPK3.1 (CBL-interacting protein kinase 3, splice variant CIPK3.1) (Arabidopsis thaliana).
The target of experiment [2] is BD-CIPK3.2 (CBL-interacting protein kinase 3, splice variant CIPK3.2) (Arabidopsis thaliana).
For experiment [3], the target named is BD-CIPK3.3 (CBL-interacting protein kinase 3, splice variant CIPK3.3) (Arabidopsis thaliana).
Experiment [4] has as its target BD-CIPK3.4 (CBL-interacting protein kinase 3, splice variant CIPK3.4) (Arabidopsis thaliana) (UniProt Q2V452).
The target of experiment [5] is CIPK3K (kinase domain of CIPK3, without regulatory domain) (Arabidopsis thaliana).

Amino acid sequences for entries named in this document (tags omitted). A change or cut given only in a name is not applied to a line headed by its entry.
UniProt Q2V452: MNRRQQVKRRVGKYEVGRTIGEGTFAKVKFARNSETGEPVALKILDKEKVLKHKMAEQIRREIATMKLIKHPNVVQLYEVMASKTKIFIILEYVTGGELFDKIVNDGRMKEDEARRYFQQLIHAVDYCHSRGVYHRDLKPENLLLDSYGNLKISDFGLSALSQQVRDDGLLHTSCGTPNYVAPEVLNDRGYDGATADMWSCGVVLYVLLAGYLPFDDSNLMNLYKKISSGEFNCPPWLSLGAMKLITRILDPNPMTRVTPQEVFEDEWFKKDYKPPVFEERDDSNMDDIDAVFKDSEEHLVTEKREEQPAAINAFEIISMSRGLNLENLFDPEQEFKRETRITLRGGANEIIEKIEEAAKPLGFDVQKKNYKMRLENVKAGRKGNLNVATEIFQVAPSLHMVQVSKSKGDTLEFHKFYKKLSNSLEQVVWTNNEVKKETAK

These are yes or no findings as the source states them, for the method shown. For some assays here: Binding can be weak; no strength is given. Where a sequence is shown, tags or fusion partners need not be part of it.

B1: AD-ABR1 (AP2-domain containing transcription factor ABR1) (protein, UniProt Q9FGF8 1-391)
chain: MCVLKVANQEDNVGKKAESIRDDDHRTLSEIDQWLYLFAAEDDHHRHSFPTQQPPPSSSSSSLISGFSREMEMSAIVSALTHVVAGNVPQHQQGGGEGSGEGTSNSSSSSGQKRRREVEEGGAKAVKAANTLTVDQYFSGGSSTSKVREASSNMSGPGPTYEYTTTATASSETSSFSGDQPRRRYRGVRQRPWGKWAAEIRDPFKAARVWLGTFDNAESAARAYDEAALRFRGNKAKLNFPENVKLVRPASTEAQPVHQTAAQRPTQSRNSGSTTTLLPIRPASNQSVHSQPLMQSYNLSYSEMARQQQQFQQHHQQSLDLYDQMSFPLRFGHTGGSMMQSTSSSSSHSRPLFSPAAVQPPPESASETGYLQDIQWPSDKTSNNYNNSPSS
For B1, the binding result was “binds” in experiment [1]; “binds” in experiment [2]; “no binding” in experiment [3]; “no binding” in experiment [4]; “no binding” in experiment [5].

The record behind these values is publication PMC5705611.
